No end group written: not given here.
Experiment: peptide made by a vendor
Settings: whole synthesis

Q: For RADSRADC, which “purity (crude or final not stated)” value is on record?
A: The value was “purity>82%”.

— patent US8026208B2 (The Board of Trustees of the Leland Stanford Junior …, priority 2007, dated 2011)
